PubChem BioAssay AID504784, Drosophila RNAi Screening Center – 2011

Assay: 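Search for regulators of lipid droplet storage in oleate-fed fly cells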 (primary screen)
Cell system: Drosophila Kc167 embryonic cells
Reagents: long dsRNA against Drosophila genes, about 250 ng dsRNA per well
Time to read-out: 4 days
Conditions: cells fed 400 µM oleic acid bound to BSA
Measurement: 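Cells imaged and segmented; ratio of lipid droplet area to nuclear area, log-transformed, then normalised as a B-score over the screen; higher means more stored lipid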
Direction: droplet/nuclear area B-score: higher = more stored lipid (overstorage)
The screen tested about 17,000 reagents; below is an unselected part of those that have a named target and a result. 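Each column is one replicate's B-score; the combined score over replicates was not deposited, so single values may mislead.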 Names joined by + are all predicted targets of the reagent. Further read-outs or replicates are left out here. Reagent sequences are not shown.

How did the screen score CG15124 [DRSC06546]?
droplet/nuclear area B-score, replicate 1: 0.291

Which result is listed for IntS4 [DRSC17810]?
droplet/nuclear area B-score, replicate 1: 4.06

What is on record for CG34266 [DRSC08323]?
droplet/nuclear area B-score, replicate 1: -0.153

Which result is listed for CG16710 [DRSC15136]?
droplet/nuclear area B-score, replicate 1: -1.7

For CG4313 [DRSC18514], what does the deposit list?
droplet/nuclear area B-score, replicate 1: -4.11

How did the screen score RpS15Ab + RpS15Aa [DRSC06129]?
droplet/nuclear area B-score, replicate 1: -0.711

What is on record for RpS15Ab + RpS15Aa [DRSC19831]?
droplet/nuclear area B-score, replicate 1: -1.4

Which result is listed for CG2278 [DRSC18226]?
droplet/nuclear area B-score, replicate 1: 0.676

For HLH3B [DRSC18669], what was measured?
droplet/nuclear area B-score, replicate 1: -1.45

What did the screen give for CG14257 [DRSC14752]?
droplet/nuclear area B-score, replicate 1: 0.00961

Which result is listed for CG13659 [DRSC14660]?
droplet/nuclear area B-score, replicate 1: -0.272

For SNCF [DRSC10115], how do the results read?
droplet/nuclear area B-score, replicate 1: 1.46

What did the screen give for CG31467 [DRSC16048]?
droplet/nuclear area B-score, replicate 1: 0.118

What did the screen give for Root [DRSC15972]?
droplet/nuclear area B-score, replicate 1: 1.59

With Acat1 [DRSC17766], what does the deposit list?
droplet/nuclear area B-score, replicate 1: 0.986

With CG3430 [DRSC02713], what was measured?
droplet/nuclear area B-score, replicate 1: -0.745

For RanBP3 [DRSC14217], how do the results read?
droplet/nuclear area B-score, replicate 1: -0.0102

What did the screen give for RanBP3 [DRSC23153]?
droplet/nuclear area B-score, replicate 1: 1.22

3 entries already listed, sorted by “droplet/nuclear area B-score, replicate 1”, highest first.
CG2278 [DRSC18226] → droplet/nuclear area B-score, replicate 1: 0.676
RpS15Ab + RpS15Aa [DRSC06129] → droplet/nuclear area B-score, replicate 1: -0.711
RpS15Ab + RpS15Aa [DRSC19831] → droplet/nuclear area B-score, replicate 1: -1.4

Continued.
How did the screen score CG12539 [DRSC19470]?
droplet/nuclear area B-score, replicate 1: -1.84

With Pp2B-14D [DRSC20270], how do the results read?
droplet/nuclear area B-score, replicate 1: 0.144

With Pp2B-14D [DRSC23315], what does the deposit list?
droplet/nuclear area B-score, replicate 1: 0.748

How did the screen score CG15458 [DRSC20529]?
droplet/nuclear area B-score, replicate 1: -1.7

How did the screen score CG14259 [DRSC14754]?
droplet/nuclear area B-score, replicate 1: -2.49

With Nepl11 [DRSC12333], what does the deposit list?
droplet/nuclear area B-score, replicate 1: -1.82

Which result is listed for otk [DRSC07658]?
droplet/nuclear area B-score, replicate 1: -0.0493

What did the screen give for Cdc23 [DRSC02708]?
droplet/nuclear area B-score, replicate 1: -0.0138

What is on record for CG4641 (retired record) [DRSC10439]?
droplet/nuclear area B-score, replicate 1: -0.674

With CG15800 [DRSC04271], what was measured?
droplet/nuclear area B-score, replicate 1: 0.352

How did the screen score CG5577 [DRSC10519]?
droplet/nuclear area B-score, replicate 1: -0.526

With CG34337 [DRSC18435], how do the results read?
droplet/nuclear area B-score, replicate 1: 1.41

What did the screen give for CG9899 [DRSC04597]?
droplet/nuclear area B-score, replicate 1: -0.365

With Tango14 [DRSC00667], what does the deposit list?
droplet/nuclear area B-score, replicate 1: 1.67

What did the screen give for Ccdc39 [DRSC12286]?
droplet/nuclear area B-score, replicate 1: 0.123

With crok [DRSC02593], what does the deposit list?
droplet/nuclear area B-score, replicate 1: 0.174

Which result is listed for crok [DRSC21349]?
droplet/nuclear area B-score, replicate 1: 1.46

For Sec16 [DRSC19788], what does the deposit list?
droplet/nuclear area B-score, replicate 1: 0.773

How did the screen score Sec16 [DRSC19858]?
droplet/nuclear area B-score, replicate 1: -0.307

With Cep89 [DRSC07110], what was measured?
droplet/nuclear area B-score, replicate 1: 0.343

With brun [DRSC02706], what does the deposit list?
droplet/nuclear area B-score, replicate 1: -1.45

With lab [DRSC12627], what does the deposit list?
droplet/nuclear area B-score, replicate 1: -1.89

For vih [DRSC09778], how do the results read?
droplet/nuclear area B-score, replicate 1: 0.537

Which result is listed for Rab9Fb [DRSC19854]?
droplet/nuclear area B-score, replicate 1: -1.71

With CG14079 [DRSC10083], how do the results read?
droplet/nuclear area B-score, replicate 1: 0.162

For CG3546 [DRSC18308], what does the deposit list?
droplet/nuclear area B-score, replicate 1: -1.6

Which result is listed for Nca [DRSC11233]?
droplet/nuclear area B-score, replicate 1: 0.102

With CG12391 [DRSC06147], what does the deposit list?
droplet/nuclear area B-score, replicate 1: -0.464

For CG7906 [DRSC10928], what was measured?
droplet/nuclear area B-score, replicate 1: 0.684

With Hmu [DRSC16705], what does the deposit list?
droplet/nuclear area B-score, replicate 1: 1.04

For CG12860 [DRSC06200], what does the deposit list?
droplet/nuclear area B-score, replicate 1: 0.927

How did the screen score CG6324 [DRSC19985]?
droplet/nuclear area B-score, replicate 1: 1.38

What did the screen give for CG2017 [DRSC12293]?
droplet/nuclear area B-score, replicate 1: 0.359
